Assay results taken from the supplement of paper PMC7661543.
± gives the standard deviation of the averaged measurements. The effect of the compound repeats well; differences between the knockouts mostly do not.

System: SKBR3
Assay: relative cell number vs DMSO control (72 h) (% of DMSO); higher = less growth inhibition (more cells)
Protocol: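 QMAP-Seq: a pool of 5 breast cancer cell lines (ZR-75-1, SKBR3, HCC-38, MDA-MB-231, BT-20), each carrying 12 doxycycline-inducible Cas9 sgRNA perturbations (11 knockouts plus non-targeting sgNT), was treated with compounds for 72 h at four 10-fold doses (10 nM-10 uM or 1 nM-1 uM range). Barcodes were amplified and sequenced, and cell number was interpolated from 293T spike-in standard curves. The result is expressed as % of the median of DMSO wells. Two biological replicates.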

[1] = sgRNA knockout: sgATF3, 1000 nM
[2] = sgRNA knockout: sgATF3, 10000 nM
[3] = sgRNA knockout: sgATF4, 1000 nM
[4] = sgRNA knockout: sgATF4, 10000 nM
[5] = sgRNA knockout: sgATF6, 1000 nM
[6] = sgRNA knockout: sgATF6, 10000 nM
[7] = sgRNA knockout: sgATG7, 1000 nM
[8] = sgRNA knockout: sgATG7, 10000 nM
[9] = sgRNA knockout: sgERN1, 1000 nM
[10] = sgRNA knockout: sgERN1, 10000 nM
[11] = sgRNA knockout: sgHSF1, 1000 nM
[12] = sgRNA knockout: sgHSF1, 10000 nM
[13] = sgRNA knockout: sgHSF2, 1000 nM
[14] = sgRNA knockout: sgHSF2, 10000 nM
[15] = sgRNA knockout: sgKEAP1, 100 nM
[16] = sgRNA knockout: sgKEAP1, 1000 nM
[17] = sgRNA knockout: sgKEAP1, 10000 nM
[18] = sgRNA knockout: sgNFE2L2, 10 nM
[19] = sgRNA knockout: sgNFE2L2, 100 nM
[20] = sgRNA knockout: sgNFE2L2, 1000 nM
[21] = sgRNA knockout: sgNFE2L2, 10000 nM
[22] = sgRNA knockout: sgSLC35F2, 10 nM
[23] = sgRNA knockout: sgSLC35F2, 100 nM
[24] = sgRNA knockout: sgSLC35F2, 1000 nM
[25] = sgRNA knockout: sgSLC35F2, 10000 nM
[26] = sgRNA knockout: sgXBP1, 1000 nM
[27] = sgRNA knockout: sgXBP1, 10000 nM

Work on `CC(=O)Nc1nc(C)c(S(=O)(=O)Nc2ccc(C(O)(C(F)(F)F)C(F)(F)F)cc2)s1` [SR1001] yielded a relative cell number (sgRNA knockout: sgATF3, 10 nM) of 132 ± 6, a relative cell number (sgRNA knockout: sgATF3, 100 nM) of 103 ± 1.3 and a relative cell number [1] of 130 ± 18. The relative cell number [2] was 102 ± 32, the relative cell number (sgRNA knockout: sgATF4, 10 nM) was 107 ± 25 and the relative cell number (sgRNA knockout: sgATF4, 100 nM) was 101 ± 5.5. It also gave a relative cell number [3] of 106 ± 16, a relative cell number [4] of 114.7 ± 0.3 and a relative cell number (sgRNA knockout: sgATF6, 10 nM) of 101 ± 47. It also gave a relative cell number (sgRNA knockout: sgATF6, 100 nM) of 82 ± 2.3, a relative cell number [5] of 95 ± 11 and a relative cell number [6] of 124 ± 45. The relative cell number (sgRNA knockout: sgATG7, 10 nM) was 93.8 ± 4.4, the relative cell number (sgRNA knockout: sgATG7, 100 nM) was 92.1 ± 21 and the relative cell number [7] was 103 ± 18. The relative cell number [8] was 99.8 ± 7.7, the relative cell number (sgRNA knockout: sgERN1, 10 nM) was 117 ± 8.8 and the relative cell number (sgRNA knockout: sgERN1, 100 nM) was 114 ± 45. For the same molecule, the relative cell number [9] was 142 ± 43, the relative cell number [10] was 118 ± 29 and the relative cell number (sgRNA knockout: sgHSF1, 10 nM) was 114 ± 9. The relative cell number (sgRNA knockout: sgHSF1, 100 nM) was 79.2 ± 15, the relative cell number [11] was 123 ± 35 and the relative cell number [12] was 116 ± 14. The relative cell number (sgRNA knockout: sgHSF2, 10 nM) was 88.4 ± 27, the relative cell number (sgRNA knockout: sgHSF2, 100 nM) was 89.6 ± 2.5 and the relative cell number [13] was 114 ± 19. The relative cell number [14] was 118 ± 7.5, the relative cell number (sgRNA knockout: sgKEAP1, 10 nM) was 108 ± 8.8 and the relative cell number [15] was 88.6 ± 14. For the same molecule, the relative cell number [16] was 111 ± 15, the relative cell number [17] was 110 ± 13 and the relative cell number [18] was 106 ± 26. For the same molecule, the relative cell number [19] was 106 ± 8.8, the relative cell number [20] was 101 ± 31 and the relative cell number [21] was 137 ± 25. It also gave a relative cell number [22] of 101 ± 45, a relative cell number [23] of 105 ± 2.9 and a relative cell number [24] of 106 ± 6.6. For the same molecule, the relative cell number [25] was 88.3 ± 7.9, the relative cell number (sgRNA knockout: sgXBP1, 10 nM) was 125 ± 40 and the relative cell number (sgRNA knockout: sgXBP1, 100 nM) was 98.1 ± 6.8. The relative cell number [26] was 122 ± 11 and the relative cell number [27] was 123 ± 5.8.
`CS(=O)(=O)N1CCN(Cc2cc3nc(-c4cccc5[nH]ncc45)nc(N4CCOCC4)c3s2)CC1` [GDC0941] was tested, and the relative cell number (sgRNA knockout: sgATF3, 10 nM) was 113 ± 6.2, the relative cell number (sgRNA knockout: sgATF3, 100 nM) was 90.4 ± 10 and the relative cell number [1] was 37.7 ± 1.1. It also gave a relative cell number [2] of 34 ± 1.9, a relative cell number (sgRNA knockout: sgATF4, 10 nM) of 82.7 ± 6.7 and a relative cell number (sgRNA knockout: sgATF4, 100 nM) of 72 ± 3.2. The relative cell number [3] was 37.9 ± 2.6, the relative cell number [4] was 29.6 ± 2.1 and the relative cell number (sgRNA knockout: sgATF6, 10 nM) was 104 ± 1.9. It also gave a relative cell number (sgRNA knockout: sgATF6, 100 nM) of 80 ± 26, a relative cell number [5] of 42.8 ± 4.3 and a relative cell number [6] of 36.8 ± 1. For the same molecule, the relative cell number (sgRNA knockout: sgATG7, 10 nM) was 89 ± 27, the relative cell number (sgRNA knockout: sgATG7, 100 nM) was 82.7 ± 16 and the relative cell number [7] was 40.2 ± 8.6. For the same molecule, the relative cell number [8] was 33.5 ± 13, the relative cell number (sgRNA knockout: sgERN1, 10 nM) was 90.2 ± 2.4 and the relative cell number (sgRNA knockout: sgERN1, 100 nM) was 91.8 ± 11. The relative cell number [9] was 44.5 ± 5.9, the relative cell number [10] was 36.8 ± 11 and the relative cell number (sgRNA knockout: sgHSF1, 10 nM) was 87.4 ± 11. It also gave a relative cell number (sgRNA knockout: sgHSF1, 100 nM) of 83.7 ± 8.8, a relative cell number [11] of 36.4 ± 4.7 and a relative cell number [12] of 30.3 ± 12. It also gave a relative cell number (sgRNA knockout: sgHSF2, 10 nM) of 84.3 ± 3.6, a relative cell number (sgRNA knockout: sgHSF2, 100 nM) of 97.9 ± 36 and a relative cell number [13] of 44.2 ± 13. For the same molecule, the relative cell number [14] was 39 ± 18, the relative cell number (sgRNA knockout: sgKEAP1, 10 nM) was 90.1 ± 27 and the relative cell number [15] was 67.9 ± 6.5. It also gave a relative cell number [16] of 40.3 ± 5, a relative cell number [17] of 32.9 ± 0.56 and a relative cell number [18] of 85.9 ± 5.8. The relative cell number [19] was 86.8 ± 9.9, the relative cell number [20] was 41.3 ± 5.9 and the relative cell number [21] was 34.7 ± 4.8. For the same molecule, the relative cell number [22] was 96.4 ± 4.5, the relative cell number [23] was 83 ± 8.8 and the relative cell number [24] was 40.2 ± 9.3. The relative cell number [25] was 44.7 ± 12, the relative cell number (sgRNA knockout: sgXBP1, 10 nM) was 111 ± 10 and the relative cell number (sgRNA knockout: sgXBP1, 100 nM) was 81.5 ± 7.2. It also gave a relative cell number [26] of 51.1 ± 15 and a relative cell number [27] of 33.6 ± 4.3.
In the case of `OCc1ccc(-c2ccc(-c3ccc(CO)s3)o2)s1`, the relative cell number (sgRNA knockout: sgATF3, 10 nM) is reported as 93.9 ± 12, the relative cell number (sgRNA knockout: sgATF3, 100 nM) is reported as 11.9 ± 3 and the relative cell number [1] is reported as 12.3 ± 6.5. It also gave a relative cell number [2] of 5.72 ± 0.73, a relative cell number (sgRNA knockout: sgATF4, 10 nM) of 83.5 ± 24 and a relative cell number (sgRNA knockout: sgATF4, 100 nM) of 14.2 ± 3. The relative cell number [3] was 10.7 ± 4.2, the relative cell number [4] was 6.32 ± 0.84 and the relative cell number (sgRNA knockout: sgATF6, 10 nM) was 75.1 ± 16. For the same molecule, the relative cell number (sgRNA knockout: sgATF6, 100 nM) was 13.9 ± 8.4, the relative cell number [5] was 12 ± 5.6 and the relative cell number [6] was 5.39 ± 0.86. For the same molecule, the relative cell number (sgRNA knockout: sgATG7, 10 nM) was 90.8 ± 32, the relative cell number (sgRNA knockout: sgATG7, 100 nM) was 15.3 ± 4.6 and the relative cell number [7] was 14.2 ± 5. For the same molecule, the relative cell number [8] was 5.79 ± 3.1, the relative cell number (sgRNA knockout: sgERN1, 10 nM) was 90.2 ± 44 and the relative cell number (sgRNA knockout: sgERN1, 100 nM) was 13.1 ± 1.9. It also gave a relative cell number [9] of 10.5 ± 3.8, a relative cell number [10] of 7.51 ± 2.3 and a relative cell number (sgRNA knockout: sgHSF1, 10 nM) of 61.9 ± 20. The relative cell number (sgRNA knockout: sgHSF1, 100 nM) was 10.7 ± 0.59, the relative cell number [11] was 11 ± 2.6 and the relative cell number [12] was 4.83 ± 1. The relative cell number (sgRNA knockout: sgHSF2, 10 nM) was 64.7 ± 21, the relative cell number (sgRNA knockout: sgHSF2, 100 nM) was 14.5 ± 2.2 and the relative cell number [13] was 11.7 ± 4.9. The relative cell number [14] was 6.74 ± 0.58, the relative cell number (sgRNA knockout: sgKEAP1, 10 nM) was 75.4 ± 21 and the relative cell number [15] was 16.3 ± 3.6. It also gave a relative cell number [16] of 10.3 ± 4.7, a relative cell number [17] of 5.68 ± 1.6 and a relative cell number [18] of 72.8 ± 24. For the same molecule, the relative cell number [19] was 17.4 ± 9.8, the relative cell number [20] was 13 ± 5.7 and the relative cell number [21] was 6.84 ± 1.7. The relative cell number [22] was 84.3 ± 38, the relative cell number [23] was 18.1 ± 2 and the relative cell number [24] was 12 ± 5. The relative cell number [25] was 5.57 ± 1.8, the relative cell number (sgRNA knockout: sgXBP1, 10 nM) was 96.3 ± 15 and the relative cell number (sgRNA knockout: sgXBP1, 100 nM) was 16.8 ± 3.7. For the same molecule, the relative cell number [26] was 14.5 ± 6.7 and the relative cell number [27] was 6.9 ± 3.1.
